Assay results as given in PubChem BioAssay AID493027 (The Scripps Research Institute Molecular Screening Center, 2011).
Several values for one entry are separate records, joined by “and”; a condition that tells them apart may be missing. Equal entries are not always repeated. Among all 2,000 compounds or so, about 45 (2%) were called active.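 How the source made its calls: active means inhibition above the screen-wide mean inhibition plus 3 SD (cut at about 44% in these data); inactive means the rest.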 The list shows a part of the results. Where a SMILES comes first, the peptide text is derived from it. The star is where a group is joined. Boc = CC(C)(C)OC(=O)*; OBn = c1ccc(CO*)cc1

The chains behind the UniProt entries cited, without tags or fusion partners. Where a name states a change or a piece, a line headed by the entry shows the natural chain unless it says otherwise.
UniProt O60240: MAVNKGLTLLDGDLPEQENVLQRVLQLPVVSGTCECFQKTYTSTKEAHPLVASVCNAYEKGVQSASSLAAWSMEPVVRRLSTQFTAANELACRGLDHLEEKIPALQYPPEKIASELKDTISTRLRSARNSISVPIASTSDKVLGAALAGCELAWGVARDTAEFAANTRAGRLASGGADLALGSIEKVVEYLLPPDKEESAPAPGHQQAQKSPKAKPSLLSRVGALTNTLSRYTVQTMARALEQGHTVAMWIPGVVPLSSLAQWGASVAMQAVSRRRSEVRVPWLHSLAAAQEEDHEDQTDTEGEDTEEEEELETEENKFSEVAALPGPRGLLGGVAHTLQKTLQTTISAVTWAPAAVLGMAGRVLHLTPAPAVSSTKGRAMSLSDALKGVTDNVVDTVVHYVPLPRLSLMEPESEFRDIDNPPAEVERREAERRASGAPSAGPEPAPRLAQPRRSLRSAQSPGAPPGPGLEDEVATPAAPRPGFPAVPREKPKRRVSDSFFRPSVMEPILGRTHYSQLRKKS
UniProt Q8WTS1: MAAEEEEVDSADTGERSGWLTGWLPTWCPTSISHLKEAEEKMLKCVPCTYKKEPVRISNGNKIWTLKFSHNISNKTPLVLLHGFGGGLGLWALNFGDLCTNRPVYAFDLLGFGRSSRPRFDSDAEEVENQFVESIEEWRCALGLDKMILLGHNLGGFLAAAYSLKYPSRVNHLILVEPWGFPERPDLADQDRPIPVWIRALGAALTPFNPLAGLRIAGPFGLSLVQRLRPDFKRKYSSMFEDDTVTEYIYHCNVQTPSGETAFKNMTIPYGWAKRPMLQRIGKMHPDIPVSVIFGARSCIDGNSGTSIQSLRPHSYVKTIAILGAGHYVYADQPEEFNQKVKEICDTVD

The compounds below were run against Perilipin-1 (Homo sapiens) + 1-acylglycerol-3-phosphate O-acyltransferase ABHD5 (Homo sapiens) (UniProt O60240+Q8WTS1) (assay: ABHD5-PLIN1 interaction inhibitors, pilot screen, cell lysate, split luciferase complementation, luminescence, NIH validation set (AID 493027;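 further: 0% = DMSO wells with the 100% control not disclosed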)). Settings: split G. princeps luciferase complementation, 4 h; at 7.9 µM, active compounds read high.

inhibition, inactive:
Cc1ccc2occ(C(=O)c3ccco3)c(=O)c2c1 -4.19%
COc1ccc(C(=O)/C=C/c2ccc(OC(=O)c3cc(OC)c(OC)c(OC)c3)cc2)cc1 26.9%
CC(=O)NC(Cc1ccccc1)C(=O)OCC(=O)c1ccccc1 (centres undefined) -8.49%
COc1cccc(C2CC(=O)C3=C(C2)Nc2ccccc2N(C(=O)CCC(=O)O)C3c2ccc(F)cc2)c1 (centres undefined) -2.89%
COc1ccc2c(c1OC)C(=O)NC(C)=C(C(=O)OC(C)(C)C)C2O (centres undefined) 8.07%
O=C1NC2(Nc3ccccc31)C(=O)Nc1ccc(Br)cc12 (centres undefined) 0.88%
COc1ccc(CNC(=O)c2c(O)c3cccc4c3n(c2=O)CCC4)cc1 5.27%
Cc1nc(C(=O)Nc2ccccc2Cl)cc2c1[nH]c1ccccc12 -0.62%
CCCCC[C@H](O)/C=C/[C@@H]1[C@@H](C/C=C\CCCC(=O)O)[C@@H](O)C[C@H]1O -10.3%
CN(CCO)CC(O)Cn1cnc2c1c(=O)n(C)c(=O)n2C (centres undefined) (tested in a mixture with another compound) -12.9%
CC(C)(C)N(Cc1ccccc1)C(=O)c1ccc(Br)o1 -5.96%
CC(COc1ccccc1)N(CCCl)Cc1ccccc1 (centres undefined) -6.13%
COc1ccc(CN(CCN(C)C)c2ccccn2)cc1 -7.19%
CCOC(=O)C(Cc1cc(C(C)=O)ccc1OC(C)C)C(=O)OCC 5.74%
CCCNC(C)C(=O)Nc1ccccc1C (centres undefined) -5.83%
NC(=O)N1c2ccccc2C=Cc2ccccc21 -5.36%
COc1cc(C2NCCc3c2[nH]c2ccccc32)ccc1OC(C)C (centres undefined) -0.02%
COc1ccc2oc(-c3ccco3)cc(=O)c2c1 1.51%
CCOc1cc2oc(=O)c3c(c2cc1Cl)CCC3 -7%
CCNC(=O)C12CCC(C)(C(=O)O1)C2(C)C (centres undefined) -2.06%
COc1cc2c(cc1OC)C(c1cc3ccccc3oc1=O)=NC(C)(C)C2 7.43%
CN(C)CCN(Cc1cccs1)c1ccccn1 -14.6%
NC(=O)[C@@H]1[C@@H]2C(=O)N(c3ccc(F)cc3)C(=O)[C@@H]2[C@H]2C=Cc3ccccc3N21 22.7%
COc1ccc2[nH]c3c(c2c1)CCNC3C1CC=C(C)CC1 (centres undefined) -5.28%
CCOC(=O)C1(CCCc2ccccc2)CCN(C2CCN(C(C)=O)CC2)CC1 3.04%
Cc1cc(C(=O)Nc2ccccc2C(=O)N2CCCCC2)ccc1[N+](=O)[O-] -3.48%
CN(Cc1ccccc1)CC(O)COc1ccc(CNCc2cccnc2)cc1 (centres undefined) -9.52%
COc1ccc(N2C(=O)C3CCCN3C2=O)cc1 (centres undefined) -1.6%
COc1cc(=O)n(C)c2ccccc12 -0.74%
O=Cc1ccccc1Oc1ccccc1 -8.29%
COc1cc(-c2cccs2)cc(=O)c2c(C)oc(C)c12 32%
CCN(CC)c1ccc([C@H]2[C@@H]3CCCC[C@]3(O)CCN2CC(=O)NCc2ccco2)cc1 -6.03%
COC(=O)c1sccc1NC(=O)Nc1ccccc1F 1.81%
O=C(O)COc1ccc2occ(C(=O)c3ccccc3)c2c1 -1.86%
CN(C)c1ccc(Nc2c3c4c(cccc4n(C)c2=O)C(=O)c2ccccc2-3)cc1 41.7%
CC(C)OC(=O)c1ccc(NC(=O)c2cncc(Br)c2)cc1 -4.19%
O=C(c1ccc(-c2ccccc2)c(F)c1)C1CCCN(C(=O)c2cncs2)C1 (centres undefined) 14.8%
COc1ccc(C(=O)COc2ccc(F)cc2)c(O)c1 -7.26%
COc1ccc2c(c1OC)C(=O)N1C2SC[C@H]1C(=O)NC1CC(C)(C)NC(C)(C)C1 (some centres undefined) -1.05%
O=C(NC1CCCCC1)c1cc2nc(-c3ccco3)cc(C(F)(F)F)n2n1 -3.55%
Cc1c(OCC(F)(F)F)ccnc1CS(=O)c1nc2ccccc2[nH]1 (centres undefined) -7.91%
O=C(/C=C/c1ccc(F)cc1)NC(=S)N1CCCCC1c1cccnc1 (centres undefined) -16.9%
CNC[C@H](O)c1cccc(O)c1 3.45%
COc1ccc2[nH]c(CN3CCN(CC(C)C)C(CCO)C3)c(C)c2c1 (centres undefined) -9.85%
Cn1c2ccccc2c2cc(/C=C(\NC(=O)c3ccccc3)C(=O)O)ccc21 0.09%
COc1ccc(CCNC(=O)C(=O)Nc2ccc3c(c2)OCO3)cc1OC -0.39%
CCN(CC)CCNC(=O)c1ccc(NC(C)=O)cc1 -3.41% and -1.11%
CC[C@H]1CN2CCc3cc(OC)c(OC)cc3[C@@H]2C[C@@H]1C[C@H]1NCCc2cc(OC)c(OC)cc21 1.15%
CCOc1ccc2oc(-c3ccccc3)c(C(=O)O)c2c1 -9.42%
COc1cc(OC)c2c(C)c(Cl)c(=O)oc2c1 -3.22%
COc1ccc(NC(=O)CC(c2ccccc2)c2ccco2)cc1 (centres undefined) 13.3%
COc1ccc(Br)cc1C(=O)Nc1ccc(C(=O)O)cc1 -3.32%
COc1cc([C@@H]2c3cc4c(cc3[C@H](O)[C@H]3COC(=O)[C@H]23)OCO4)cc(OC)c1OC -5.52%
CC(C)CC(NC(=O)C(NC(=O)OC(C)(C)C)C(C)C)C(=O)NC(CCC(=O)OCc1ccccc1)C(N)=O (stereo not drawn) (Boc-Val-Leu-Glu(OBn)-NH2; configuration not given here) -10.2%
COc1ccc(C(=O)Nc2ccccc2C(=O)NCCCn2ccnc2)cc1 -9.4%
O=C(CC1SC(=O)NC1=O)Nc1ccc(Cl)cc1 (centres undefined) -20%
COc1ccc(-c2csc(-c3cccnc3)n2)cc1C -2.4%
COc1ccc(C2(CCN=Cc3ccc(N(C)C)cc3)CCOC(C)(C)C2)cc1 (centres undefined) -7.53%
CCOC(=O)c1cnc2ccccc2c1NCCO -7.16%

Part of the list above in order of SMILES length, low to high:
inhibition, inactive:
COc1ccc(CN(CCN(C)C)c2ccccn2)cc1 -7.19%
COc1ccc2c(c1OC)C(=O)NC(C)=C(C(=O)OC(C)(C)C)C2O (centres undefined) 8.07%
CN(C)c1ccc(Nc2c3c4c(cccc4n(C)c2=O)C(=O)c2ccccc2-3)cc1 41.7%
